Experimental data reported in the supplement of paper PMC11732987, “Enantioselective OTUD7B fragment discovery through chemoproteomics screening and high-throughput optimisation” (Communications Chemistry, 2025).
The list shows a part of the results. The data scatter; read single values as rough.

The chains behind the UniProt entries cited, without tags or fusion partners. Where a name states a change or a piece, a line headed by the entry shows the natural chain unless it says otherwise. Residues count along the entry.
UniProt P11274, 235-254: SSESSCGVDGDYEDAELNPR
UniProt Q6VMQ6, 101-124: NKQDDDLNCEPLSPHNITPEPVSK
UniProt Q9NQ11: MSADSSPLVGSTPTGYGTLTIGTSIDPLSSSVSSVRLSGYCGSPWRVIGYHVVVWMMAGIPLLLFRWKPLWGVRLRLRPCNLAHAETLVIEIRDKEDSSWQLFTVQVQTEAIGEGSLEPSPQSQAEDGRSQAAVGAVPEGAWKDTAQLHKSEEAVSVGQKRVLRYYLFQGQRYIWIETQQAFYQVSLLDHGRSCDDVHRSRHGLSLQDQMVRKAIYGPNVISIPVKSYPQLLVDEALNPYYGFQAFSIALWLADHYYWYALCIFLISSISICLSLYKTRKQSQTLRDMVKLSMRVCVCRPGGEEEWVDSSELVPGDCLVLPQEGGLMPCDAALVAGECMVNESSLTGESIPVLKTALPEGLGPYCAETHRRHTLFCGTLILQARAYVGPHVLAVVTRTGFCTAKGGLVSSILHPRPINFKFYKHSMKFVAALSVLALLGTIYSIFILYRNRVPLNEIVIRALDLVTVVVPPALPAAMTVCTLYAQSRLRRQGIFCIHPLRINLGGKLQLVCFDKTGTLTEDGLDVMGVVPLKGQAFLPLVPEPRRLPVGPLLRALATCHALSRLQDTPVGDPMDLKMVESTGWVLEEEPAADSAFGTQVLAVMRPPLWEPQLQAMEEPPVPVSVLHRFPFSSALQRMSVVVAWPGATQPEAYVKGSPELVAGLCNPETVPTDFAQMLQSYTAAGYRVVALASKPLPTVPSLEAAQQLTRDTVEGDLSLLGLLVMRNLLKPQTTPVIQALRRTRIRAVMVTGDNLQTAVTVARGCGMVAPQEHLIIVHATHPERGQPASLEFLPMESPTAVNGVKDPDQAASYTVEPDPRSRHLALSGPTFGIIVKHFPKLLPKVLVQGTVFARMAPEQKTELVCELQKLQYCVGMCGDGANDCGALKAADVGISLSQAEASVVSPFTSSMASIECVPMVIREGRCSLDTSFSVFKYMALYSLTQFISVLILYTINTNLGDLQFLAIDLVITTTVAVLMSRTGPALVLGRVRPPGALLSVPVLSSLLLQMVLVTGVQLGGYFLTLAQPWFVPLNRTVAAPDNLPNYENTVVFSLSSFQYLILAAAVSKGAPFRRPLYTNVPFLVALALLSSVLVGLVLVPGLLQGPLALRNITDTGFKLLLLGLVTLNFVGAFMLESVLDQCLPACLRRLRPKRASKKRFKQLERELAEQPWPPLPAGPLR
UniProt Q9UIG0: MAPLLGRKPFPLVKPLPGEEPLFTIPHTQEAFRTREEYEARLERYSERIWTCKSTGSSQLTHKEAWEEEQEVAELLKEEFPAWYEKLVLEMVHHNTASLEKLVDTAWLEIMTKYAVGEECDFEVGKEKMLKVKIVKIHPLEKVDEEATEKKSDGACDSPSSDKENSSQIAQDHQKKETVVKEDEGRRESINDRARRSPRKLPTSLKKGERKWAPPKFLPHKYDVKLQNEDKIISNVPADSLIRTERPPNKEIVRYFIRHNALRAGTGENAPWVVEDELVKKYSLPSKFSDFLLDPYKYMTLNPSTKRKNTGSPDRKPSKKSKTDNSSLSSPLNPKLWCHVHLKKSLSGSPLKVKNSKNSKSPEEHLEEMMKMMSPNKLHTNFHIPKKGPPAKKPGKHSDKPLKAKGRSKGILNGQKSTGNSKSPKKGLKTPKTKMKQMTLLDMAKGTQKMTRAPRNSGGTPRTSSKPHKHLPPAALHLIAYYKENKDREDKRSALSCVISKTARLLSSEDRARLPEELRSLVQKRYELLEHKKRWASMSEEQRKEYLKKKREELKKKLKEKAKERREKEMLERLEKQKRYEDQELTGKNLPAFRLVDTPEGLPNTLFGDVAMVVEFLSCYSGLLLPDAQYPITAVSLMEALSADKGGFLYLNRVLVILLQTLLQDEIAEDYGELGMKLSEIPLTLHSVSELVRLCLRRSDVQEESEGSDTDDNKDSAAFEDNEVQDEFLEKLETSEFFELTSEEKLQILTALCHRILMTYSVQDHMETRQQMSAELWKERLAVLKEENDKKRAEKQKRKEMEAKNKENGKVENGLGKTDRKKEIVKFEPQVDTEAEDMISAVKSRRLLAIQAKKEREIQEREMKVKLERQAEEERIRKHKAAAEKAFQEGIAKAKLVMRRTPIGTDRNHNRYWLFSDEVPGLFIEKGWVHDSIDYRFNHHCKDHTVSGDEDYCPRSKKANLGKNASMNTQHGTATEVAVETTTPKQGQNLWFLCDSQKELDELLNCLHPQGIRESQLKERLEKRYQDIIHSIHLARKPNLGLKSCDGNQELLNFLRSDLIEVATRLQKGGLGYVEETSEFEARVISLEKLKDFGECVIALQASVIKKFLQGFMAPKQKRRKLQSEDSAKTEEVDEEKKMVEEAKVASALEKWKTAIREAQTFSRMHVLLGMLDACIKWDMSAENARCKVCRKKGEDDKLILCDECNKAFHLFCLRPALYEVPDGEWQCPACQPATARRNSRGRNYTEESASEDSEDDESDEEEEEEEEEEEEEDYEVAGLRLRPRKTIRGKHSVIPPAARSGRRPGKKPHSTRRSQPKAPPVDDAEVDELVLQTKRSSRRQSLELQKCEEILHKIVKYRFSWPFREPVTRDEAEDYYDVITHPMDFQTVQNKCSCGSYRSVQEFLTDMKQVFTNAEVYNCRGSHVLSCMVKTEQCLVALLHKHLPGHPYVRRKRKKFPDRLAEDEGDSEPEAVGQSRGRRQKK
UniProt Q93084: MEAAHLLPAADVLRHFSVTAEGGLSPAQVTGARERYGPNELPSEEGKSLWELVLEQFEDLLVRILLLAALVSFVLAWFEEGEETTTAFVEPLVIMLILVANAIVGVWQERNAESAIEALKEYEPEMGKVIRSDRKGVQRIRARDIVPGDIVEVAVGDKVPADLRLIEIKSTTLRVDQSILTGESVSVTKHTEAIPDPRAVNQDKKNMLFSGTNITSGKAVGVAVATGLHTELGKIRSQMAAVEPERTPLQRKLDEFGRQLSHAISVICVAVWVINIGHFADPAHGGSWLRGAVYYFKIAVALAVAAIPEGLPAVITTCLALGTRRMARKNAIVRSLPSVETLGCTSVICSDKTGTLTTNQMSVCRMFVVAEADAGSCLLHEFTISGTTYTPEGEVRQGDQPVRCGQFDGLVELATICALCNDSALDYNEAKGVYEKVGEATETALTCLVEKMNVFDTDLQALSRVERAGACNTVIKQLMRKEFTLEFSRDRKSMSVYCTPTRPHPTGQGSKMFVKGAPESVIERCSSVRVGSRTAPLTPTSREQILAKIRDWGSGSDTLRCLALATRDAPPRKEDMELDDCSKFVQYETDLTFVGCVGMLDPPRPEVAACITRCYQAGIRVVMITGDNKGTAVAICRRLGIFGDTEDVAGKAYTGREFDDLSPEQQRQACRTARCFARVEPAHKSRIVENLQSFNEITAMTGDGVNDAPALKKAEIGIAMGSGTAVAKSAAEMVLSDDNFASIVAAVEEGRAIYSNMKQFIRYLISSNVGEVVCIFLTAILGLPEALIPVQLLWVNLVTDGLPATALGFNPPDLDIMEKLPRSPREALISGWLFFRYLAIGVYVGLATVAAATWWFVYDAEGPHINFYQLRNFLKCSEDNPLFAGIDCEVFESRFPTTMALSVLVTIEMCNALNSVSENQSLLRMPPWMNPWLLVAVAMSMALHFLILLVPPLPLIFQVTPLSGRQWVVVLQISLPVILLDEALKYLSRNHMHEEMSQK
UniProt P21281: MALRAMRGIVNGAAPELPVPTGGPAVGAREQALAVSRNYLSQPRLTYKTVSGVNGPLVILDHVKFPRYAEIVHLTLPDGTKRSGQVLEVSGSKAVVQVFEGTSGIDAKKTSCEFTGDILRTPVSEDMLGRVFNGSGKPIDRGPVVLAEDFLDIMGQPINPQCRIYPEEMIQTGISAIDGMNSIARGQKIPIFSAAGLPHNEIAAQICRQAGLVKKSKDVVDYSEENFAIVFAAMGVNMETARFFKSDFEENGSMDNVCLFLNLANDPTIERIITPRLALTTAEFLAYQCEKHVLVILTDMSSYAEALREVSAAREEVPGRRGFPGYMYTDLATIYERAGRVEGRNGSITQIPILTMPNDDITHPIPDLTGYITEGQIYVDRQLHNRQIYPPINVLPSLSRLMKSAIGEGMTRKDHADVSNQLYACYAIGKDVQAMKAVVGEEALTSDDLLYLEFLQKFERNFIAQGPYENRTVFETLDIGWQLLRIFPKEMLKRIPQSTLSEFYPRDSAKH
UniProt Q9BZE9: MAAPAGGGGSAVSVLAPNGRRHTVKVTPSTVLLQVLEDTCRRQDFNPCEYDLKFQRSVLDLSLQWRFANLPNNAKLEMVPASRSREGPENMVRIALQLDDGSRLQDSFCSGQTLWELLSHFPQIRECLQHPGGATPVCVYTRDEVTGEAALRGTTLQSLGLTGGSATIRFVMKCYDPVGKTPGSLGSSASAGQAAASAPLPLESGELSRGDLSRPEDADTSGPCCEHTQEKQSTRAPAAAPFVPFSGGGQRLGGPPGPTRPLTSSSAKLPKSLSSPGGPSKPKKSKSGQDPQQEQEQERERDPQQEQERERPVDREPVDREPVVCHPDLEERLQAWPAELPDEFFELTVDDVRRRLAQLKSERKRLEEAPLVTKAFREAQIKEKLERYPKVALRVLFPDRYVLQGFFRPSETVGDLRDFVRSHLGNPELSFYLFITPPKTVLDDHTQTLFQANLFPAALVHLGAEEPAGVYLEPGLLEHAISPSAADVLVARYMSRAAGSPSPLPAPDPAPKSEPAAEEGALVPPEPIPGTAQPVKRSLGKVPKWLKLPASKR
UniProt Q04656, 270-289: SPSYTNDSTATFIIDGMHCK
UniProt Q96BY7, 864-894: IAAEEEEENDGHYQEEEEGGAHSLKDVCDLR
UniProt Q9UBB4: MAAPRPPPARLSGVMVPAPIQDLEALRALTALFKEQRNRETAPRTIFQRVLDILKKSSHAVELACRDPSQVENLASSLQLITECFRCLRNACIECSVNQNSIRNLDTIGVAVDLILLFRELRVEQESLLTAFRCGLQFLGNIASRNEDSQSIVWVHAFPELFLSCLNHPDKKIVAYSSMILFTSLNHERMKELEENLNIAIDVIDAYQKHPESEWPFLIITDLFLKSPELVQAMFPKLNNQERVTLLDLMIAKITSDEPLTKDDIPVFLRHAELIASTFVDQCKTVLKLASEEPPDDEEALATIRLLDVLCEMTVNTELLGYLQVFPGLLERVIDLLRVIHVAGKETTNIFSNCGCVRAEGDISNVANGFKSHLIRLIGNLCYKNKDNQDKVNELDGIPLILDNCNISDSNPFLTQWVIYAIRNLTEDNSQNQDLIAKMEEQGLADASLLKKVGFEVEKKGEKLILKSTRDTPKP
UniProt Q14692: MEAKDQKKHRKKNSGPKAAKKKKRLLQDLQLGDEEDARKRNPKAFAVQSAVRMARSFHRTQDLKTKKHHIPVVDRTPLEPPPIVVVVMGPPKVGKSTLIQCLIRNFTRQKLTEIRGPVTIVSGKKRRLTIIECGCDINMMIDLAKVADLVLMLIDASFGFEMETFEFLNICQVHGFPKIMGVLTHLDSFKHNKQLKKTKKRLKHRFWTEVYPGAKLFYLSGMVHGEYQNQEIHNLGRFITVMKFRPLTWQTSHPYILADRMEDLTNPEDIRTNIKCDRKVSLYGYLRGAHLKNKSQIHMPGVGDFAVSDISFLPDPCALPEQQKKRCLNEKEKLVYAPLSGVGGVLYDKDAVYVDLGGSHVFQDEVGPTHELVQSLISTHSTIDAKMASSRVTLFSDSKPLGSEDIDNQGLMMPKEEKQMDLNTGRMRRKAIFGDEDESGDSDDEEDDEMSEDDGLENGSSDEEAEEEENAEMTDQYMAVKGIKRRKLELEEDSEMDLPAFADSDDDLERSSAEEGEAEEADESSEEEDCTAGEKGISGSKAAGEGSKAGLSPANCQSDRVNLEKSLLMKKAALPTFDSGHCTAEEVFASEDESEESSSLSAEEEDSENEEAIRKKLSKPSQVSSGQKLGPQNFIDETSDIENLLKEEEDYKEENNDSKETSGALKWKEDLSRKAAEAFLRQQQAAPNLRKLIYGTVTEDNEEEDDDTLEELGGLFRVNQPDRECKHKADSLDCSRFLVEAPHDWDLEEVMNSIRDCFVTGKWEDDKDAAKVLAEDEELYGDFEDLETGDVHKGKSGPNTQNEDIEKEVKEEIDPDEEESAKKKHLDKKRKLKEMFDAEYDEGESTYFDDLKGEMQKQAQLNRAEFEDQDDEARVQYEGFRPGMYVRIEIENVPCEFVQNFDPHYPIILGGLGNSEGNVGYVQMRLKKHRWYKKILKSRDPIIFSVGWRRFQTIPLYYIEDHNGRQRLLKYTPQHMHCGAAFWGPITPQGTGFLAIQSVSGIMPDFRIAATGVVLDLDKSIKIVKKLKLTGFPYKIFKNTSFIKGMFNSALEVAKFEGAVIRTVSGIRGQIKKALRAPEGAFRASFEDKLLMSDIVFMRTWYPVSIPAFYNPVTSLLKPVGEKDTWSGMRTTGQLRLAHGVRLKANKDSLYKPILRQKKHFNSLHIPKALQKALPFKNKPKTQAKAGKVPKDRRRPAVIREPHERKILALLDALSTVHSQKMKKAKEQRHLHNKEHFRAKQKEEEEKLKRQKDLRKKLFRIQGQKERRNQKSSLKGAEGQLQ

Compound: ClCC(=O)N[C@@H]1CCCc2ccccc12
Test: log2 mean competition ratio of IA-DTB cysteine labelling (DMSO/compound) (log2 ratio); higher = stronger cysteine engagement by compound
Settings: 50 µM; treatment time: 4 h; cell line lysate: HEK293T
Method: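 IA-DTB competitive cysteine chemoproteomics in HEK293T RIPA lysate. Lysates were treated with compound 29 or 30 at 50 or 200 µM for 4 h, then IA-DTB (500 µM, 1 h), trypsin-digested, NeutrAvidin-enriched and analysed by diaPASEF. Competition ratio = intensity DMSO / intensity compound (n=4 treated, n=64 DMSO); binding: mean log2 CR ≥ 1 and p ≤ 0.05 plus QC filters. Target is the cysteine site.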

| Target | log2 mean competition ratio |
| --- | --- |
| ATP6V0D1 C335 (UniProt P61421) | -0.388 |
| BCR C240 (UniProt P11274) | -0.301 |
| BIRC6 C752 | -0.00703 |
| ATF7IP C109 (UniProt Q6VMQ6) | -0.563 |
| ATP13A2 C365 (UniProt Q9NQ11) | -0.105 |
| BIRC6 C2910 | -0.0489 |
| ATP2A2 C669 (UniProt P16615) | -0.133 |
| BAZ1B C497 (UniProt Q9UIG0) | -0.0412 |
| BCOR C23 (UniProt Q6W2J9) | -0.194 |
| ATP2A3 C447 (UniProt Q93084) | -0.417 |
| ATP6V1B2 C112 (UniProt P21281) | -0.0322 |
| BIRC6 C777 | 0.0441 |
| ASPSCR1 C48 (UniProt Q9BZE9) | -0.189 |
| ATP7A C288 (UniProt Q04656) | 0.249 |
| ATG2B C891 (UniProt Q96BY7) | -0.378 |
| ATXN10 C65 (UniProt Q9UBB4) | 0.198 |
| ATRX C1844 (UniProt P46100) | -0.0954 |
| ATAD5 C909 (UniProt Q96QE3) | 0.137 |
| ATXN2 C892 | 0.153 |
| ASNS C158 (UniProt P08243) | -0.235 |
| BCOR C1488 (UniProt Q6W2J9) | 0.228 |
| BMS1 C725 (UniProt Q14692) | -0.148 |
| BAZ1B C120 (UniProt Q9UIG0) | -0.258 |
| BAZ1B C1428 (UniProt Q9UIG0) | 0.221 |
| BCL2L12 C254 (UniProt Q9HB09) | 0.203 |
| ASXL2 C1166 (UniProt Q76L83) | 0.204 |
| BAG2 C162 (UniProt O95816) | -0.118 |
| ATXN2 C852 | -0.0193 |

Retrieved one by one from the entries so far, 2 records:

| Target | log2 mean competition ratio |
| --- | --- |
| BAZ1B C497 (UniProt Q9UIG0) | -0.0412 |
| BAZ1B C1428 (UniProt Q9UIG0) | 0.221 |
